PubChem BioAssay AID1259254, NCATS – 2017
Here is one part, drawn at random, of about 59,000 deposited reagents. In the full data, about 1,550 (2.6%) are marked active. 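G2 share is only a proxy for re-replication; each gene was hit by three separate siRNAs, and active genes were retested.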 Entries without a mark were called inactive. Further read-outs or replicates are left out here. Reagent sequences are not shown. The record does not give: the amount of reagent.

Assay: 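Gene knock-downs that lead to re-replication, shown by excess G2 DNA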 (primary screen)
Cells: human HCT116 colorectal cancer cells
Reagents: single siRNA against human genes
Time to read-out: 3 days
Read-out: 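Imaged Hoechst DNA stain sorts each cell into a cycle phase by DNA amount; per plate, G2 fraction set to 0% for non-targeting and 100% for GMNN siRNA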
Direction: G2 robust z-score: higher = more G2 cells, more excess DNA replication
Call rule: 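Active siRNAs have a G2 robust z of 5 or more median absolute deviations over the median, which in these data means about 38% or higher of GMNN control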

MIR3945HG (GeneID 731424) [SID160734827]
- G2 robust z-score: 0.157

MIR3945HG (GeneID 731424) [SID160774113]
- G2 robust z-score: 0.00219

MIR3945HG (GeneID 731424) [SID160774114]
- G2 robust z-score: 0.025

AQP11 (GeneID 282679) [SID160762720]
- G2 robust z-score: 0.783

AQP11 (GeneID 282679) [SID160762721]
- G2 robust z-score: 1.7

AQP11 (GeneID 282679) [SID160762722]
- G2 robust z-score: 5.11 (active)

DHDDS (GeneID 79947) [SID160749827]
- G2 robust z-score: -0.251

DHDDS (GeneID 79947) [SID160749828]
- G2 robust z-score: 0.459

DHDDS (GeneID 79947) [SID160749829]
- G2 robust z-score: -1.18

KLHL2P1 (GeneID 729249) [SID160734502]
- G2 robust z-score: 0.797

KLHL2P1 (GeneID 729249) [SID160772579]
- G2 robust z-score: 1.95

KLHL2P1 (GeneID 729249) [SID160772580]
- G2 robust z-score: 0.24

NAA50 (GeneID 80218) [SID160750232]
- G2 robust z-score: 0.34

NAA50 (GeneID 80218) [SID160750233]
- G2 robust z-score: 0.681

NAA50 (GeneID 80218) [SID160750235]
- G2 robust z-score: 1.91

DOCK3 (GeneID 1795) [SID160755758]
- G2 robust z-score: 1.3

DOCK3 (GeneID 1795) [SID160755768]
- G2 robust z-score: -0.915

DOCK3 (GeneID 1795) [SID160755779]
- G2 robust z-score: -0.56

ST6GALNAC6 (GeneID 30815) [SID160731060]
- G2 robust z-score: 0.266

ST6GALNAC6 (GeneID 30815) [SID160739514]
- G2 robust z-score: 2.45

ST6GALNAC6 (GeneID 30815) [SID160739515]
- G2 robust z-score: 0.789

ASPN (GeneID 54829) [SID160742262]
- G2 robust z-score: 7.26 (active)

ASPN (GeneID 54829) [SID160742263]
- G2 robust z-score: -0.237

ASPN (GeneID 54829) [SID160742264]
- G2 robust z-score: -1.06
